Among the data in publication PMC9265697 are binding values, retold here.

Protein sequences, listed by entry. Tags and fused reporters are not part of them.
UniProt Q64727: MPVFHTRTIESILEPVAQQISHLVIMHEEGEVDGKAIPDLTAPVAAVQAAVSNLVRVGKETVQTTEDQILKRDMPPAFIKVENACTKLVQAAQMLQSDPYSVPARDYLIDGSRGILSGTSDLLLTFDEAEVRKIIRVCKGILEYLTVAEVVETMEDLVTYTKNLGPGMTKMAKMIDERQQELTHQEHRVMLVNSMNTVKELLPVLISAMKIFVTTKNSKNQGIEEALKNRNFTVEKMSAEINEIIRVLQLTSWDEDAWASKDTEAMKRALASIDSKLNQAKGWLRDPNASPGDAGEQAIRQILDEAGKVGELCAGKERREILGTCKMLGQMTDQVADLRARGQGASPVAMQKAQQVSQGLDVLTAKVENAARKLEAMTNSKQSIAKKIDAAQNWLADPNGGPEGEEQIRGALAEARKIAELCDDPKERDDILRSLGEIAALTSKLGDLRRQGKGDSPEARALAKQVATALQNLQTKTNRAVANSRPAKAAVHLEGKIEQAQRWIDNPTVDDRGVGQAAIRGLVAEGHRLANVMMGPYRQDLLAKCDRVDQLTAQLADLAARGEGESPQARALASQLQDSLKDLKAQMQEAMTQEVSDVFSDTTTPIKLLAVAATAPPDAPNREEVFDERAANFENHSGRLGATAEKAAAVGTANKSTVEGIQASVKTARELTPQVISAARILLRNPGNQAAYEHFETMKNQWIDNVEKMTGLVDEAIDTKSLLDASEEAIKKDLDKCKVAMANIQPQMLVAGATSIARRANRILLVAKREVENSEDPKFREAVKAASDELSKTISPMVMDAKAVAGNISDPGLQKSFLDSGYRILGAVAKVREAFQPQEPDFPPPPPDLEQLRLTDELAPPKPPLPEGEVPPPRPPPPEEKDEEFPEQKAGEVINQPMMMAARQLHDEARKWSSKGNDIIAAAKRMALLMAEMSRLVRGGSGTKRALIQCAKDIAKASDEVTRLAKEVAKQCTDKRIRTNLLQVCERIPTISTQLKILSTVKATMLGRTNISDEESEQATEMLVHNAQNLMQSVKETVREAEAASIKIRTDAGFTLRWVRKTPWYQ
UniProt O88685: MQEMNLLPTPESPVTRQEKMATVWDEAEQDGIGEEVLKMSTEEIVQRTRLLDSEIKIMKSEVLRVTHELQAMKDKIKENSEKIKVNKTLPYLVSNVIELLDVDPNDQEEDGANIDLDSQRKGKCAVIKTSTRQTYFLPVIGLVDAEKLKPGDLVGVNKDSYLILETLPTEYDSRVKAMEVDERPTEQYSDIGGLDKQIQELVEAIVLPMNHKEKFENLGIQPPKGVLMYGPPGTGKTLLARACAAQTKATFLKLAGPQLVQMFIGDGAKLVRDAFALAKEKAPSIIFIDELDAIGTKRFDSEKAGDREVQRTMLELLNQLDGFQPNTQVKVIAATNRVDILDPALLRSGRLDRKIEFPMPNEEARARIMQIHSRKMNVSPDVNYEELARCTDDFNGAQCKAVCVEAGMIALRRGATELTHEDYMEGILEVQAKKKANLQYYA
UniProt P62334: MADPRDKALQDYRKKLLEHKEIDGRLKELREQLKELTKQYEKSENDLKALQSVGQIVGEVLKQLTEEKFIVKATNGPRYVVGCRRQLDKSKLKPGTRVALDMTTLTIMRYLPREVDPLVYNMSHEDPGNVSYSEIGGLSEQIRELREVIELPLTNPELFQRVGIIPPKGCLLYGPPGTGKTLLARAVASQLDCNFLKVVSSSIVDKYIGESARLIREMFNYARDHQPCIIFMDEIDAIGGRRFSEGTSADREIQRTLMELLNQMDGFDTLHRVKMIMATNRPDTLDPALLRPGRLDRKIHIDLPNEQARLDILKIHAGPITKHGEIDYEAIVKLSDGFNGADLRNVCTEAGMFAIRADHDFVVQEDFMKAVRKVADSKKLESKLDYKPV
UniProt Q91YR1: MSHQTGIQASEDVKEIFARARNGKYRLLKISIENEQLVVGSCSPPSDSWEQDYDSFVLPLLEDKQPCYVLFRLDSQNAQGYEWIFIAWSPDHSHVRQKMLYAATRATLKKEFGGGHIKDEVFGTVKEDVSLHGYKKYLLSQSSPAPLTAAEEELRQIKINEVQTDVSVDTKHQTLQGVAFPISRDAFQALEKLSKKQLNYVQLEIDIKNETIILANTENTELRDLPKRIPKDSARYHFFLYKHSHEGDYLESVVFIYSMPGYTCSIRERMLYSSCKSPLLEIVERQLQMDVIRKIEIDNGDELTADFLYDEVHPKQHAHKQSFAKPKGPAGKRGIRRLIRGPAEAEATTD
UniProt Q9WUP7: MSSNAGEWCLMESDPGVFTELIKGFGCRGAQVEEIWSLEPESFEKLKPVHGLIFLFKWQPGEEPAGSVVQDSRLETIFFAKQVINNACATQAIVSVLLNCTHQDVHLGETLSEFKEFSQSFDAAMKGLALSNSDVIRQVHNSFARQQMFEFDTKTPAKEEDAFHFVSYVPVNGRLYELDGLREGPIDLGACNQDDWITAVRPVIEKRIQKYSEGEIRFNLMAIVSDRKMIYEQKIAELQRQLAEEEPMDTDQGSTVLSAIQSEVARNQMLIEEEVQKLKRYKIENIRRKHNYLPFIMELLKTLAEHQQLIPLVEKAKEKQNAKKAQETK

Results are given in words; binding and its absence hold for the method and conditions named. Binding seen in cells or lysates may run through a third protein. These calls come from enrichment with a bait or labelling near it, and not all partners need be listed.

For the test, the target named is Vinculin (mouse (endogenous in testicular cells and primary spermatocytes)) (UniProt Q64727). Description: affinity purification with mass spectrometry; co-IP of endogenous VCL with polyclonal anti-Vinculin antibody (ab91459) and Protein A Dynabeads, overnight at 4 °C, from whole-cell/cytoplasmic (Cl) and nuclear (Nu) extracts of mouse testicular single-cell suspension and FACS-sorted primary (pachytene) spermatocytes; rabbit IgG isotype control; on-bead trypsin digest, nLC-MS2, label-free quantification.
As to Psmc3 (from UniProt O88685 1-442), the binding result is on record as “binds”.

Turning to Psmc6 (from UniProt P62334 1-389), the binding entry is “binds”.

Twinfilin-1 (from UniProt Q91YR1 1-350): the binding result is “binds”.

Regarding “ubiquitin carboxy-terminal hydrolase type 5 (from UniProt Q9WUP7 1-329)”, the binding result is listed as “binds”.
